Data published in publication doi:10.1101/679936.
No constants are given. Whether binding was seen depends on the method and setting. Binding seen in cells or lysates may run through a third protein. Tags and fused reporters may be left off the sequences shown.

Chains of the proteins cited; added tags and fusions are not shown. Lines headed by an entry give the natural chain unless they say otherwise; changes in a name come on top. A line that says so, or that is headed by a name, gives the form on record, which may keep a tag or linker.
reticulon-4B (RTN-4B), endogenous in HEK 293T (Q9NQC3-2, form named): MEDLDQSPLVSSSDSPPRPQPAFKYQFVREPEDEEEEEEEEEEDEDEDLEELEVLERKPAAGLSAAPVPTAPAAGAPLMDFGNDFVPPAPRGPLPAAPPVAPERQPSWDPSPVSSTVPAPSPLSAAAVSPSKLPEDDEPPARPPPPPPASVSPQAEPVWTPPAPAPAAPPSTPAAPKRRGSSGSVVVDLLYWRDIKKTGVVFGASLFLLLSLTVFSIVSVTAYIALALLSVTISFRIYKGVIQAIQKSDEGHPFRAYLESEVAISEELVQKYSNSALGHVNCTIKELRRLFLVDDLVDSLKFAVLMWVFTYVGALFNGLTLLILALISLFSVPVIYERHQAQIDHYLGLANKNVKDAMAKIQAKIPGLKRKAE

Columns and labels:
Experiment in all cases: co-IP
[1] = molecular target: T1, FLAG-SCAP stably expressed in HeLa cells (hamster) (UniProt P97260)
T1 sequence: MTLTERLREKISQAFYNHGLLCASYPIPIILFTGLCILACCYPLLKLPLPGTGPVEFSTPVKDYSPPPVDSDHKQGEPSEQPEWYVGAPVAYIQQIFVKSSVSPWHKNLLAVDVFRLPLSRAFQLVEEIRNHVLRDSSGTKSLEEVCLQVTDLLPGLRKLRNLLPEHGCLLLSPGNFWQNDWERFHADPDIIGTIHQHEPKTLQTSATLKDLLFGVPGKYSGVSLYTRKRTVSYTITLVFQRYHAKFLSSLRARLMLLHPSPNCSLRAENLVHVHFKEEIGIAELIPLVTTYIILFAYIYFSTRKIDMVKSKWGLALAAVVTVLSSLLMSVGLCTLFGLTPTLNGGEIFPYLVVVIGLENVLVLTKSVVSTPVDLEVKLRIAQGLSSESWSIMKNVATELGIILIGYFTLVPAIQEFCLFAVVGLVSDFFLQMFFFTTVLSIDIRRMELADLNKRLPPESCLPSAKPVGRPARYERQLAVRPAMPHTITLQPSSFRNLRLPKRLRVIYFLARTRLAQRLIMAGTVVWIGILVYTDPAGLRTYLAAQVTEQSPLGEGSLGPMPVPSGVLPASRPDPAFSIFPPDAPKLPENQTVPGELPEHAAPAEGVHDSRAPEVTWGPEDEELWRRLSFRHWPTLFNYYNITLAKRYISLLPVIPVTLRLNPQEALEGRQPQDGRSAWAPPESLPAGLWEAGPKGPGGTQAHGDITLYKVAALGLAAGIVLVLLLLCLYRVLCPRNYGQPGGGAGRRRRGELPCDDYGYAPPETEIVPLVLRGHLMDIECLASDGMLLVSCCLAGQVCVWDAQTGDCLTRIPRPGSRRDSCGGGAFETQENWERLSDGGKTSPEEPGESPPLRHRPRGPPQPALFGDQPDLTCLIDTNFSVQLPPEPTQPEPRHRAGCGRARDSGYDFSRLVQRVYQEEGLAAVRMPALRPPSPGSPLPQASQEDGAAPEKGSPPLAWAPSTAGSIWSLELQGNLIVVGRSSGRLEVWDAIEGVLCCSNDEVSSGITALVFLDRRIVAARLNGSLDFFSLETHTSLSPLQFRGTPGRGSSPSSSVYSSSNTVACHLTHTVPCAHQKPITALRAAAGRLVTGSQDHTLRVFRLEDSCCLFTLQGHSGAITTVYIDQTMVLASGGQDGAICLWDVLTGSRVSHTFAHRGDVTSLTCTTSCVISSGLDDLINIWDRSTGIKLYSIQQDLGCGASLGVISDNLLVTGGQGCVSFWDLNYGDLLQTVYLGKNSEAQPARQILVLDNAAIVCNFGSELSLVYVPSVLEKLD

FLAG-SREBP2 = molecular target: T2, FLAG-SREBP2 (UniProt Q12772)
T2 sequence: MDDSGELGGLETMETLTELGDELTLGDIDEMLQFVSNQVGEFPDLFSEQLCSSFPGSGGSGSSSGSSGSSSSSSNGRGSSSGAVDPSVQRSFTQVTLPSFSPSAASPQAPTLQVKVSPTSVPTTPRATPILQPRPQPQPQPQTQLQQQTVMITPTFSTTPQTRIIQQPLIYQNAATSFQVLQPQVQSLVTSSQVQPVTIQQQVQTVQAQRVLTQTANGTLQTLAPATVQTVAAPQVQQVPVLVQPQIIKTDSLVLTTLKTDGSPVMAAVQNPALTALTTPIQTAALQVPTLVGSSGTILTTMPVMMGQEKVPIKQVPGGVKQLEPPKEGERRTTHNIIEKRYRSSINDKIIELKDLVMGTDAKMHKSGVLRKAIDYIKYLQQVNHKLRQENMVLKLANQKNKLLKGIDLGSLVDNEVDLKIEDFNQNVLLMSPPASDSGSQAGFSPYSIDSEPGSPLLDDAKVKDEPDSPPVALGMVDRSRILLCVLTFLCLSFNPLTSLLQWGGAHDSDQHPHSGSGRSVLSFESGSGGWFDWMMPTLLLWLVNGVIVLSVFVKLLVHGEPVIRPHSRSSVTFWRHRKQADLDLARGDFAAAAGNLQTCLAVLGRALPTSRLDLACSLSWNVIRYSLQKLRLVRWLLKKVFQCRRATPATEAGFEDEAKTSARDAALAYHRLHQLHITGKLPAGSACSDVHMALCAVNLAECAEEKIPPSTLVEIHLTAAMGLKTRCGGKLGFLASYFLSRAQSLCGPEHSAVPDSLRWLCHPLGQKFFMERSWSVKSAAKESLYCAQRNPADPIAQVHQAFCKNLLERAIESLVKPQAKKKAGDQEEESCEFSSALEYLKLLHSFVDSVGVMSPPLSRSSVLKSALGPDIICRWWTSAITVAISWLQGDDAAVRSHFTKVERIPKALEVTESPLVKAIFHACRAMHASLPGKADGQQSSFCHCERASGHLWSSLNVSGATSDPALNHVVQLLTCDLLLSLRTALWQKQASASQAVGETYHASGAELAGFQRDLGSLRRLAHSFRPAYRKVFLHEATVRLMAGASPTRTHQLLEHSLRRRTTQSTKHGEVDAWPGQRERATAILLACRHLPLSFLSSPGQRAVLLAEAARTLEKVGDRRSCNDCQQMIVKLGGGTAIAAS

FLAG-SREBP1a = molecular target: T3, FLAG-SREBP1a (UniProt P36956)
T3 sequence: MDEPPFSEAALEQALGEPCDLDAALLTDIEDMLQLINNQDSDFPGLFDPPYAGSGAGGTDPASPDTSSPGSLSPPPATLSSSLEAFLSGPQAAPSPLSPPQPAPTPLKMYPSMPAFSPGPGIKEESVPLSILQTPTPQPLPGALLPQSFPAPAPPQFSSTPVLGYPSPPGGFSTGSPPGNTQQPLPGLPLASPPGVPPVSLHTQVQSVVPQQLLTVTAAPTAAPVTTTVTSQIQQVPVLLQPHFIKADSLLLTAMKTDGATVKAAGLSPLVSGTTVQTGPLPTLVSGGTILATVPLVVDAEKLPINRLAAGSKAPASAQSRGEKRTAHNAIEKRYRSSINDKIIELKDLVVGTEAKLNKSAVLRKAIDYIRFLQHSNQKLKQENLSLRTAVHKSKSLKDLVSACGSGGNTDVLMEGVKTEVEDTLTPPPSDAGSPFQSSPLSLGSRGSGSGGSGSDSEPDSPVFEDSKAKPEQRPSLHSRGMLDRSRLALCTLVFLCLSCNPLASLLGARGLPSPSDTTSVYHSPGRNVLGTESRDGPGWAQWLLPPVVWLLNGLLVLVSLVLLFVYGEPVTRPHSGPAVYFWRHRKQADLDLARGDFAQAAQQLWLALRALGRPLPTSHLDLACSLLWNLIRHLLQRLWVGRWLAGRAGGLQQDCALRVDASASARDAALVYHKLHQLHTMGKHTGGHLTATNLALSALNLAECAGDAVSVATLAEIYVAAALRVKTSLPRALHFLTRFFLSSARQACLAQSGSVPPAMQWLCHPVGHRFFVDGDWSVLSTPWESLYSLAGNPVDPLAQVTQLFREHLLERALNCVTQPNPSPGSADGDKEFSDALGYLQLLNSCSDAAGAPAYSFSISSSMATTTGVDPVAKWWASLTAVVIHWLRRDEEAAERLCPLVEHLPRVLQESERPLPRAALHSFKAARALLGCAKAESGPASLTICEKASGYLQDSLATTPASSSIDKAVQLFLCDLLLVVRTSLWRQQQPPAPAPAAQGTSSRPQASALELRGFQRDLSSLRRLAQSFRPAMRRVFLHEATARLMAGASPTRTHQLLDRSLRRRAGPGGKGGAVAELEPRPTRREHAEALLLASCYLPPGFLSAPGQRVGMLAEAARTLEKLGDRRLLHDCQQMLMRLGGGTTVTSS

[2] = molecular target: T4, FLAG-tagged hamster SCAP (hamster) (UniProt P97260)
T4 sequence: T1 sequence

| binding [1] | binding (FLAG-SREBP2) | binding (FLAG-SREBP1a) | binding [2] | Substance |
| --- | --- | --- | --- | --- |
| no binding | – | – | – | RTN-4B, endogenous in HeLa (from UniProt Q9NQC3-2 1-373) |
| – | no binding | no binding | no binding | reticulon-4B (RTN-4B), endogenous in HEK 293T (from UniProt Q9NQC3-2 1-373) |
